Laboratory results taken from patent US8216580B2, “Sulfatases and methods of use thereof” (The Regents of the University of California, priority 2000, dated 2012).
Some entries share one result that the patent states for a list of compounds.

Test: Arylsulfatase activity assay with 4-MUS substrate
Assay type: biochemical
Conditions: 4-MUS 1-10 mM, pH 8, 2 hr; approximated from estimates of Sulf protein levels in CM
Protocol: The 100-fold concentrated conditioned medium (CM) derived from each transfection of CHO cells as described above was dialyzed into 50 mM HEPES, pH 8.0. The His-tagged fusion proteins were bound to a Ni-NTA resin (QIAGEN) by rotation at 4° C. over night, then washed with 50 mM HEPES (pH 8.0), 3 times. 250 mM imidazole in 50 mM HEPES, pH 8.0 was used to elute the His-tagged fusion proteins from Ni-NTA. The resins with boud material or the eluates were mixed with 10 mM 4-methylumbelliferyl-sulfate (4-MUS; a substrate for sulfatases), and 10 mM lead acetate, in a total volume of 100 μl. The reaction mixtures were incubated at 37° C. for various periods of time. […] The fluorescence of 4-methylumbelliferone was measured on a Multi-Well Plate Reader CytoFluorII (PerSeptive Biosystems). The fluorescence was determined at an excitation wavelength of 360 nm and emission wavelength of 460 nm. […]
HSulf-1, HSulf-2 or their mutated forms (HSulf-1 ΔCC and HSulf-2 ΔCC) was purified from the conditioned medium of transfected CHO cells by binding to Ni-NTA beads. […] No activity was detected in the absence of added substrate (not shown). […] The activity of each Sulf was determined relative to that of beads exposed to an equivalent volume of vector-control conditioned medium. The activity of HG6S was determined (24 hr incubation) relative to that of the buffer. […]

Substance: HSulf-2: Human SULF2, an 870 amino acid sulfatase protein, SEQ ID NO:06; expressed with C-terminal Myc-His tag
- Vmax: 1000-2000 nmol per min per mg of Sulf protein
